Measured values reported in the supplement of paper PMC8728848.
The other results are listed elsewhere or left out.

Columns and labels:
Test in all cases: glycan array binding signal (z-score within array); higher = stronger binding
Conditions in all cases: glycan notation: IUPAC condensed, linker removed
[1] = molecular target: Gal(b1-4)GlcNAc(b1-3)Gal(b1-4)GlcNAc(b1-3)Gal(b1-4)GlcNAc
Summary of the method: (§1)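 From the Consortium for Functional Glycomics database, 3228 arrays were curated, keeping only those whose protein sequence was available. Binding is given as a within-array Z-score averaged across arrays sharing a protein sequence and across linkers. Negative Z-scores can be read as non-binding.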

[2] = molecular target: Gal(b1-4)GlcNAc(b1-3)Gal(b1-4)GlcNAc(b1-3)Gal(b1-4)GlcNAc(b1-2)Man(a1-3)[Gal(b1-4)GlcNAc(b1-3)Gal(b1-4)GlcNAc(b1-3)Gal(b1-4)GlcNAc(b1-2)Man(a1-6)]Man(b1-4)GlcNAc(b1-4)GlcNAc
Summary of the method: as §1

[3] = molecular target: Gal(b1-4)GlcNAc(b1-3)Gal(b1-4)GlcNAc(b1-3)Gal(b1-4)GlcNAc(b1-2)Man(a1-3)[Gal(b1-4)GlcNAc(b1-3)Gal(b1-4)GlcNAc(b1-3)Gal(b1-4)GlcNAc(b1-2)Man(a1-6)]Man(b1-4)GlcNAc(b1-4)[Fuc(a1-6)]GlcNAc
Summary of the method: as §1

[4] = molecular target: Gal(b1-4)GlcNAc(b1-3)Gal(b1-4)GlcNAc(b1-3)Gal(b1-4)GlcNAc(b1-2)[Gal(b1-4)GlcNAc(b1-3)Gal(b1-4)GlcNAc(b1-3)Gal(b1-4)GlcNAc(b1-6)]Man(a1-6)[Gal(b1-4)GlcNAc(b1-3)Gal(b1-4)GlcNAc(b1-3)Gal(b1-4)GlcNAc(b1-2)Man(a1-3)]Man(b1-4)GlcNAc(b1-4)[Fuc(a1-6)]GlcNAc
Summary of the method: as §1

[5] = molecular target: Gal(b1-4)GlcNAc(b1-3)Gal(b1-4)GlcNAc(b1-3)Gal(b1-4)GlcNAc(b1-3)Gal(b1-4)GlcNAc(b1-2)Man(a1-3)[Gal(b1-4)GlcNAc(b1-3)Gal(b1-4)GlcNAc(b1-3)Gal(b1-4)GlcNAc(b1-3)Gal(b1-4)GlcNAc(b1-2)Man(a1-6)]Man(b1-4)GlcNAc(b1-4)GlcNAc
Summary of the method: as §1

[6] = molecular target: Gal(b1-4)GlcNAc(b1-3)Gal(b1-4)GlcNAc(b1-3)Gal(b1-4)GlcNAc(b1-3)Gal(b1-4)GlcNAc(b1-2)Man(a1-3)[Gal(b1-4)GlcNAc(b1-3)Gal(b1-4)GlcNAc(b1-3)Gal(b1-4)GlcNAc(b1-3)Gal(b1-4)GlcNAc(b1-2)Man(a1-6)]Man(b1-4)GlcNAc(b1-4)[Fuc(a1-6)]GlcNAc
Summary of the method: as §1

[7] = molecular target: Gal(b1-4)GlcNAc(b1-3)Gal(b1-4)GlcNAc(b1-3)Gal(b1-4)GlcNAc(b1-3)Gal(b1-4)GlcNAc(b1-2)[Gal(b1-4)GlcNAc(b1-3)Gal(b1-4)GlcNAc(b1-3)Gal(b1-4)GlcNAc(b1-3)Gal(b1-4)GlcNAc(b1-6)]Man(a1-6)[Gal(b1-4)GlcNAc(b1-3)Gal(b1-4)GlcNAc(b1-3)Gal(b1-4)GlcNAc(b1-3)Gal(b1-4)GlcNAc(b1-2)Man(a1-3)]Man(b1-4)GlcNAc(b1-4)[Fuc(a1-6)]GlcNAc
Summary of the method: as §1

[8] = molecular target: Gal(b1-4)GlcNAc(b1-3)Gal(b1-4)GlcNAc(b1-3)Gal(b1-4)GlcNAc(b1-3)Gal(b1-4)GlcNAc(b1-3)Gal(b1-4)GlcNAc(b1-2)Man(a1-3)[Gal(b1-4)GlcNAc(b1-3)Gal(b1-4)GlcNAc(b1-3)Gal(b1-4)GlcNAc(b1-3)Gal(b1-4)GlcNAc(b1-3)Gal(b1-4)GlcNAc(b1-2)Man(a1-6)]Man(b1-4)GlcNAc(b1-4)GlcNAc
Summary of the method: as §1

[9] = molecular target: Gal(b1-4)GlcNAc(b1-3)Gal(b1-4)GlcNAc(b1-3)Gal(b1-4)GlcNAc(b1-3)Gal(b1-4)GlcNAc(b1-3)Gal(b1-4)GlcNAc(b1-2)Man(a1-3)[Gal(b1-4)GlcNAc(b1-3)Gal(b1-4)GlcNAc(b1-3)Gal(b1-4)GlcNAc(b1-3)Gal(b1-4)GlcNAc(b1-3)Gal(b1-4)GlcNAc(b1-2)Man(a1-6)]Man(b1-4)GlcNAc(b1-4)[Fuc(a1-6)]GlcNAc
Summary of the method: as §1

[10] = molecular target: Gal(b1-4)GlcNAc(b1-3)Gal(b1-4)GlcNAc(b1-3)Gal(b1-4)GlcNAc(b1-3)Gal(b1-4)GlcNAc(b1-3)Gal(b1-4)GlcNAc(b1-2)[Gal(b1-4)GlcNAc(b1-3)Gal(b1-4)GlcNAc(b1-3)Gal(b1-4)GlcNAc(b1-3)Gal(b1-4)GlcNAc(b1-3)Gal(b1-4)GlcNAc(b1-6)]Man(a1-6)[Gal(b1-4)GlcNAc(b1-3)Gal(b1-4)GlcNAc(b1-3)Gal(b1-4)GlcNAc(b1-3)Gal(b1-4)GlcNAc(b1-3)Gal(b1-4)GlcNAc(b1-2)Man(a1-3)]Man(b1-4)GlcNAc(b1-4)[Fuc(a1-6)]GlcNAc
Summary of the method: as §1

[11] = molecular target: Gal(b1-4)GlcNAc(b1-3)Gal(b1-4)GlcNAc(b1-3)Gal(b1-4)GlcNAc(b1-3)Gal(b1-4)GlcNAc(b1-3)Gal(b1-4)GlcNAc(b1-3)Gal(b1-4)GlcNAc(b1-2)Man(a1-3)[Gal(b1-4)GlcNAc(b1-3)Gal(b1-4)GlcNAc(b1-3)Gal(b1-4)GlcNAc(b1-3)Gal(b1-4)GlcNAc(b1-3)Gal(b1-4)GlcNAc(b1-3)Gal(b1-4)GlcNAc(b1-2)Man(a1-6)]Man(b1-4)GlcNAc(b1-4)GlcNAc
Summary of the method: as §1

[12] = molecular target: Gal(b1-4)GlcNAc(b1-3)Gal(b1-4)GlcNAc(b1-3)GalNAc
Summary of the method: as §1

[13] = molecular target: Gal(b1-4)GlcNAc(b1-3)Gal(b1-4)GlcNAc(b1-3)[Gal(b1-4)GlcNAc(b1-3)Gal(b1-4)GlcNAc(b1-6)]GalNAc
Summary of the method: as §1

[14] = molecular target: Gal(b1-4)GlcNAc(b1-3)Gal(b1-4)GlcNAc(b1-6)[Gal(b1-3)]GalNAc
Summary of the method: as §1

[15] = molecular target: Gal(b1-4)GlcNAc(b1-3)Gal(b1-4)[Fuc(a1-3)]GlcNAc(b1-3)Gal(b1-4)[Fuc(a1-3)]GlcNAc
Summary of the method: as §1

[16] = molecular target: Gal(b1-4)GlcNAc(b1-3)GalNAc
Summary of the method: as §1

[17] = molecular target: Gal(b1-4)GlcNAc(b1-3)[Fuc(a1-3)GlcNAc(b1-6)]Gal(b1-4)Glc
Summary of the method: as §1

[18] = molecular target: Gal(b1-4)GlcNAc(b1-3)[Gal(b1-4)GlcNAc(b1-6)]Gal(b1-4)GlcNAc
Summary of the method: as §1

[19] = molecular target: Gal(b1-4)GlcNAc(b1-3)[GlcNAc(b1-6)]Gal(b1-4)GlcNAc
Summary of the method: as §1

B1: Erv41-EDTA (Saccharomyces cerevisiae), Q04651 (protein)
chain: MKFLVNVALVFMVVYISYIYAAAPEHHHHHHDYDIPTTENLYFQGAMGYIDQQYVVDSQVRDTVQINMDIYVNTKCDWLQINVRDQTMDRKLVLEELQLEEMPFFIPYDTKVNDINEIITPELDEILGEAIPAEFREKLDTRSFFDESDPNKAHLPEFNGCHVFGSIPVNRVSGELQITAKSLGYVASRKAPLEELKFNHVINEFSFGDFYPYIDNPLDNTAQFNQDEPLTTYVYYTSVVPTLFKKLGAEVDTNQYSVNDYRYLYKDVAAKGDKMPGIFFKYNFEPLSIVVSDVRL
- glycan array binding signal (z-score) [1]: -0.956
- glycan array binding signal (z-score) [2]: 0.872
- glycan array binding signal (z-score) [3]: 1.64
- glycan array binding signal (z-score) [4]: 2.65
- glycan array binding signal (z-score) [5]: 1.94
- glycan array binding signal (z-score) [6]: 2.2
- glycan array binding signal (z-score) [7]: 2.63
- glycan array binding signal (z-score) [8]: 0.141
- glycan array binding signal (z-score) [9]: 3.41
- glycan array binding signal (z-score) [10]: 1.44
- glycan array binding signal (z-score) [11]: -0.945
- glycan array binding signal (z-score) [12]: 0.781
- glycan array binding signal (z-score) [13]: 1.32
- glycan array binding signal (z-score) [14]: 0.677
- glycan array binding signal (z-score) [15]: -0.588
- glycan array binding signal (z-score) [16]: 0.248
- glycan array binding signal (z-score) [17]: 0.097
- glycan array binding signal (z-score) [18]: -1.1
- glycan array binding signal (z-score) [19]: 0.001
